The supplement of paper PMC4604168 (melanoma cell lines)
The other results are listed elsewhere or left out. Single values are uncertain, as repeats are few or missing.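 Cells were imaged in 1,536-well plates, and nuclei stained with an antibody against cleaved PARP were counted against all DNA-stained nuclei to give the apoptosis fraction. Screening doses were chosen to leave most cells alive, and resting and induced cleaved-PARP levels differ strongly between cell lines.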

Test system: SkMel2
Experiment: cleaved PARP positive nuclei fraction relative to DMSO control; melanoma cells; higher = more apoptosis
Conditions: library dose: low library concentration; 72 h

SMILES | cleaved PARP positive nuclei fraction
Cc1cn(-c2cc(NC(=O)c3ccc(C)c(Nc4nccc(-c5cccnc5)n4)c3)cc(C(F)(F)F)c2)cn1 [nilotinib] + CNC(=O)c1cc(Oc2ccc(NC(=O)Nc3ccc(Cl)c(C(F)(F)F)c3)cc2)ccn1 [sorafenib] (first compound 0.2 µM, partner dose 0.4 µM) | 58.7%
O=c1[nH]nc(Sc2ncc([N+](=O)[O-])s2)n1-c1ccc2c(c1)OCCO2 + Nc1nc(F)nc2c1ncn2[C@@H]1O[C@H](CO)[C@@H](O)[C@@H]1O [fludarabine] (first compound 0.2 µM, partner dose 0.2 µM) | 913%
O=C(/C=C/c1cccnc1)NCCCCC1CCN(C(=O)c2ccccc2)CC1 + Nc1nc(F)nc2c1ncn2[C@@H]1O[C@H](CO)[C@@H](O)[C@@H]1O [fludarabine] (first compound 0.01 µM, partner dose 0.2 µM) | 566%
N#CC[C@H](C1CCCC1)n1cc(-c2ncnc3[nH]ccc23)cn1 [ruxolitinib] + NC1(c2ccc(-c3nc4ccn5c(=O)[nH]nc5c4cc3-c3ccccc3)cc2)CCC1 [MK2206] (first compound 1 µM, partner dose 0.4 µM) | 122%
CCCCCCCCCCCCCCCCCCOP(=O)([O-])OC1CC[N+](C)(C)CC1 [Perifosine] + Cn1c(=O)n(-c2ccc(C(C)(C)C#N)cc2)c2c3cc(-c4cnc5ccccc5c4)ccc3ncc21 [NVP-BEZ235] (first compound 0.4 µM, partner dose 0.004 µM) | 89.6%
CC[C@]1(O)C[C@H]2CN(CCc3c([nH]c4ccccc34)[C@@](C(=O)OC)(c3cc4c(cc3OC)N(C=O)[C@H]3[C@@](O)(C(=O)OC)[C@H](OC(C)=O)[C@]5(CC)C=CCN6CC[C@]43[C@@H]65)C2)C1 [vincristine] + CC(=O)O[C@@]12CO[C@@H]1C[C@H](O)[C@@]1(C)C(=O)[C@H](O)C3=C(C)[C@@H](OC(=O)[C@H](O)[C@@H](NC(=O)OC(C)(C)C)c4ccccc4)C[C@@](O)([C@@H](OC(=O)c4ccccc4)[C@H]21)C3(C)C [Docetaxel] (first compound 0.0001 µM, partner dose 0.0001 µM) | 718%
N#CC[C@H](C1CCCC1)n1cc(-c2ncnc3[nH]ccc23)cn1 [ruxolitinib] + CCN(CC)CCNC(=O)c1c(C)[nH]c(/C=C2\C(=O)Nc3ccc(F)cc32)c1C [sunitinib] (first compound 1 µM, partner dose 0.4 µM) | 130%
COc1cc([C@@H]2c3cc4c(cc3[C@@H](O[C@@H]3O[C@@H]5CO[C@@H](C)O[C@H]5[C@H](O)[C@H]3O)[C@H]3COC(=O)[C@H]23)OCO4)cc(OC)c1O [etoposide] + O=C(/C=C/c1cccnc1)NCCCCC1CCN(C(=O)c2ccccc2)CC1 [FK866] (first compound 0.02 µM, partner dose 0.01 µM) | 1100%
CC[C@]1(O)C[C@H]2CN(CCc3c([nH]c4ccccc34)[C@@](C(=O)OC)(c3cc4c(cc3OC)N(C=O)[C@H]3[C@@](O)(C(=O)OC)[C@H](OC(C)=O)[C@]5(CC)C=CCN6CC[C@]43[C@@H]65)C2)C1 [vincristine] + C[C@@H](Oc1cc(-c2cnn(C3CCNCC3)c2)cnc1N)c1c(Cl)ccc(F)c1Cl [Crizotinib] (first compound 0.0001 µM, partner dose 0.2 µM) | 130%
CC[C@]1(O)C[C@H]2CN(CCc3c([nH]c4ccccc34)[C@@](C(=O)OC)(c3cc4c(cc3OC)N(C=O)[C@H]3[C@@](O)(C(=O)OC)[C@H](OC(C)=O)[C@]5(CC)C=CCN6CC[C@]43[C@@H]65)C2)C1 [vincristine] + Cn1c(=O)n(-c2ccc(C(C)(C)C#N)cc2)c2c3cc(-c4cnc5ccccc5c4)ccc3ncc21 [NVP-BEZ235] (first compound 0.0001 µM, partner dose 0.004 µM) | 136%
COc1cc([C@@H]2c3cc4c(cc3[C@@H](O[C@@H]3O[C@@H]5CO[C@@H](C)O[C@H]5[C@H](O)[C@H]3O)[C@H]3COC(=O)[C@H]23)OCO4)cc(OC)c1O [etoposide] + CN(c1ncccc1CNc1nc(Nc2ccc3c(c2)CC(=O)N3)ncc1C(F)(F)F)S(C)(=O)=O [PF562271] (first compound 0.02 µM, partner dose 0.08 µM) | 183%
Cc1cc(Nc2cc(N3CCN(C)CC3)nc(Sc3ccc(NC(=O)C4CC4)cc3)n2)n[nH]1 [Tozasertib] + Cc1cc(Nc2cc(N3CCN(C)CC3)nc(/C=C/c3ccccc3)n2)n[nH]1 [ENMD2076] (first compound 0.006 µM, partner dose 0.04 µM) | 98%
Cc1cc(Nc2cc(N3CCN(C)CC3)nc(Sc3ccc(NC(=O)C4CC4)cc3)n2)n[nH]1 [Tozasertib] + N#CC[C@H](C1CCCC1)n1cc(-c2ncnc3[nH]ccc23)cn1 [ruxolitinib] (first compound 0.006 µM, partner dose 1 µM) | 71.1%
CC[C@]1(O)C[C@H]2CN(CCc3c([nH]c4ccccc34)[C@@](C(=O)OC)(c3cc4c(cc3OC)N(C=O)[C@H]3[C@@](O)(C(=O)OC)[C@H](OC(C)=O)[C@]5(CC)C=CCN6CC[C@]43[C@@H]65)C2)C1 [vincristine] + C=C(c1ccc(C(=O)O)cc1)c1cc2c(cc1C)C(C)(C)CCC2(C)C [Bexarotene] (first compound 0.0001 µM, partner dose 2 µM) | 139%
O=C(/C=C/c1cccnc1)NCCCCC1CCN(C(=O)c2ccccc2)CC1 + C#Cc1cccc(Nc2ncnc3cc(OCCOC)c(OCCOC)cc23)c1 [erlotinib] (first compound 0.01 µM, partner dose 0.8 µM) | 1360%
O=C(Nc1cc(C(F)(F)F)cc(C(F)(F)F)c1)c1cc(Cl)ccc1O + Cn1c(Nc2ccc(C(F)(F)F)cc2)nc2cc(Oc3ccnc(-c4ncc(C(F)(F)F)[nH]4)c3)ccc21 [CHIR265] (first compound 0.016 µM, partner dose 0.08 µM) | 76.8%
O=c1[nH]nc(Sc2ncc([N+](=O)[O-])s2)n1-c1ccc2c(c1)OCCO2 + CS(=O)(=O)CCNCc1ccc(-c2ccc3ncnc(Nc4ccc(OCc5cccc(F)c5)c(Cl)c4)c3c2)o1 [lapatinib] (first compound 0.2 µM, partner dose 0.8 µM) | 129%

Retrieved one by one from the entries so far, 2 records:
SMILES | cleaved PARP positive nuclei fraction
O=C(Nc1cc(C(F)(F)F)cc(C(F)(F)F)c1)c1cc(Cl)ccc1O + Cn1c(Nc2ccc(C(F)(F)F)cc2)nc2cc(Oc3ccnc(-c4ncc(C(F)(F)F)[nH]4)c3)ccc21 [CHIR265] (first compound 0.016 µM, partner dose 0.08 µM) | 76.8%
N#CC[C@H](C1CCCC1)n1cc(-c2ncnc3[nH]ccc23)cn1 [ruxolitinib] + NC1(c2ccc(-c3nc4ccn5c(=O)[nH]nc5c4cc3-c3ccccc3)cc2)CCC1 [MK2206] (first compound 1 µM, partner dose 0.4 µM) | 122%
